The list shows a part of the results.
compound: C1CCN(C1)C(=O)NC2=CC=CC(=C2)NC3=NC=C(C(=N3)NCCC4=CN=CN4)Br; assay: log2 fold change, soluble protein after heating vs DMSO (PISA); higher = thermal stabilisation; K562 cells, 10 uM, 30 min; active = over 0.2 and 3.5 SD of the protein, either way, in both replicates (recomputed)
In short: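 Quantification of soluble protein used TMTpro 16plex LC-MS/MS, with channel sums equalised. Samples were the supernatant after 21,000xg for 90 min of pooled aliquots from K562 cells (2×10^6 cells/mL) treated with 10 μM compound for 30 min, heated for 3 min over 48°C-58°C, and extracted in PBS with 0.5% NP-40 at 4°C. Values, from duplicates, describe thermal stability against control samples on a log2 fold-change scale.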

Protein sequences, listed by entry. Tags and fused reporters are not part of them. Lines headed by an entry give the natural chain unless they say otherwise; changes in a name come on top.
UniProt Q13480: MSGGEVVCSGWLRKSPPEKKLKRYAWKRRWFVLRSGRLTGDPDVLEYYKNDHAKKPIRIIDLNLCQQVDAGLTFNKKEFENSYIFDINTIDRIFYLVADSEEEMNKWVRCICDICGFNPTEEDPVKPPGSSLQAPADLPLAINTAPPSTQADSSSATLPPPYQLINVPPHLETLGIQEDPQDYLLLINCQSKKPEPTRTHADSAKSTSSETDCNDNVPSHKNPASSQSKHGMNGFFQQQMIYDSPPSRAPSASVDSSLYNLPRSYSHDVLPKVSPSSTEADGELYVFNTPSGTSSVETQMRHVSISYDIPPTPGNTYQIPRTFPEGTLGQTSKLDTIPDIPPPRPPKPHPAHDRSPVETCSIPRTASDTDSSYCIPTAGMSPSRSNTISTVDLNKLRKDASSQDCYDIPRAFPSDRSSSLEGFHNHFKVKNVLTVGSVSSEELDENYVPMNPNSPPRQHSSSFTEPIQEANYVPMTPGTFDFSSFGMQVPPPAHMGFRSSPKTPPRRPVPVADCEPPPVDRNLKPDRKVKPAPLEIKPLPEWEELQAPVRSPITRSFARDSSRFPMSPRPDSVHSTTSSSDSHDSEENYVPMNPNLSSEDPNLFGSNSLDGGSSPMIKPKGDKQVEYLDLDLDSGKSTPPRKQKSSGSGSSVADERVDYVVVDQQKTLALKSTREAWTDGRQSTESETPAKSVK
UniProt Q9UN86: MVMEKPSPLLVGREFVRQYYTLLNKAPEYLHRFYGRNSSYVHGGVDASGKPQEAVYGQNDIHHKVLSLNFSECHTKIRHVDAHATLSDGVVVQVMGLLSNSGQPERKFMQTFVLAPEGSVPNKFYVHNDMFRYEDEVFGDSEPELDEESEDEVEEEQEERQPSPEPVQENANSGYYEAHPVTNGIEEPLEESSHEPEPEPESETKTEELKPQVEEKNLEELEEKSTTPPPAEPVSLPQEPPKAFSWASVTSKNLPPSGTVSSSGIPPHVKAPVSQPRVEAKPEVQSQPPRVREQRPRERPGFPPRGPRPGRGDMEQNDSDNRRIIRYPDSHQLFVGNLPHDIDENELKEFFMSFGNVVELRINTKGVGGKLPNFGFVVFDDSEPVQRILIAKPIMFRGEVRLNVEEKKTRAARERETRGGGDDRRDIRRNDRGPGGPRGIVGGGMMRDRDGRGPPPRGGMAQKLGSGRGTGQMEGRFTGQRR
UniProt Q9BWH2: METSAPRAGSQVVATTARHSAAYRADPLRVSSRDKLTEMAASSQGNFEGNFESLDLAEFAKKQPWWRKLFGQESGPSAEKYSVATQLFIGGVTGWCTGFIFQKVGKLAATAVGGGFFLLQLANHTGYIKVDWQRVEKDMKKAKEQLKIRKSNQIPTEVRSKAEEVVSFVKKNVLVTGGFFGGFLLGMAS
UniProt Q16595: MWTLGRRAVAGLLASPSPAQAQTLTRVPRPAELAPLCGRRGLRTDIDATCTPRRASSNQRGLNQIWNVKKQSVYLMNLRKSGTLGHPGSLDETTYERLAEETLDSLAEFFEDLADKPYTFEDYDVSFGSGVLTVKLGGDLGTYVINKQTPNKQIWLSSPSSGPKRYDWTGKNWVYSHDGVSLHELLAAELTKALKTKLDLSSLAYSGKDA
UniProt Q6ZNA5: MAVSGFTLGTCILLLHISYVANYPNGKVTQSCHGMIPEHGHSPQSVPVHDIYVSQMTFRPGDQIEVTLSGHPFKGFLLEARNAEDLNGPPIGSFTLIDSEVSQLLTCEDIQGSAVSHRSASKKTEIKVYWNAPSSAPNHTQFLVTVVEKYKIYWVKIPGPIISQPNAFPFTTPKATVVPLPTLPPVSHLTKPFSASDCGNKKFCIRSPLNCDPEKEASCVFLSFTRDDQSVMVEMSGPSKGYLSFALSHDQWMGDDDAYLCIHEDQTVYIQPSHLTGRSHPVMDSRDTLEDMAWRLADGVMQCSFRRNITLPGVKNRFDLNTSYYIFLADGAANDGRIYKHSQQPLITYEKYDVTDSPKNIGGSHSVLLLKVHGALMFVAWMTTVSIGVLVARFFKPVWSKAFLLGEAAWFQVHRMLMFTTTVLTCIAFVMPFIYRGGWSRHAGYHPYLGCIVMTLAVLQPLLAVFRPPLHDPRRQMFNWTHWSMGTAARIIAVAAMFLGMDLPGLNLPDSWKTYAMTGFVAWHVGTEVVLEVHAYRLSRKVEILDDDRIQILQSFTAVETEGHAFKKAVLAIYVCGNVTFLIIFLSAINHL
UniProt O95749: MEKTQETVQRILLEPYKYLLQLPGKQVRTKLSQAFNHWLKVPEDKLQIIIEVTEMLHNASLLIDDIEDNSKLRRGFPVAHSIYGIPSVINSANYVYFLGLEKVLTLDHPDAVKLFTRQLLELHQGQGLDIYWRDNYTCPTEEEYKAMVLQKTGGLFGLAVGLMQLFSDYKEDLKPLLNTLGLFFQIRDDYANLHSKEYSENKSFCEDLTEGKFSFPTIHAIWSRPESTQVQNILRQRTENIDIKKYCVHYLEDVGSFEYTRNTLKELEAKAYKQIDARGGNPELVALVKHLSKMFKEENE
UniProt Q92820: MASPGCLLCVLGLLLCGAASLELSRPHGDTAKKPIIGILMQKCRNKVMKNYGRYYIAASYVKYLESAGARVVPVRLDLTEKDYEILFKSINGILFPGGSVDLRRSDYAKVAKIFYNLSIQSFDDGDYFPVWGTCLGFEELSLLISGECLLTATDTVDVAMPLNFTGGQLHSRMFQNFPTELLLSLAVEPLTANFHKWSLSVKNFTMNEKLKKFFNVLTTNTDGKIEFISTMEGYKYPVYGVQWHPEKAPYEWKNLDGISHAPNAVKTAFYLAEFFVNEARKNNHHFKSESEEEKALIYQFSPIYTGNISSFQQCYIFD
UniProt Q06210: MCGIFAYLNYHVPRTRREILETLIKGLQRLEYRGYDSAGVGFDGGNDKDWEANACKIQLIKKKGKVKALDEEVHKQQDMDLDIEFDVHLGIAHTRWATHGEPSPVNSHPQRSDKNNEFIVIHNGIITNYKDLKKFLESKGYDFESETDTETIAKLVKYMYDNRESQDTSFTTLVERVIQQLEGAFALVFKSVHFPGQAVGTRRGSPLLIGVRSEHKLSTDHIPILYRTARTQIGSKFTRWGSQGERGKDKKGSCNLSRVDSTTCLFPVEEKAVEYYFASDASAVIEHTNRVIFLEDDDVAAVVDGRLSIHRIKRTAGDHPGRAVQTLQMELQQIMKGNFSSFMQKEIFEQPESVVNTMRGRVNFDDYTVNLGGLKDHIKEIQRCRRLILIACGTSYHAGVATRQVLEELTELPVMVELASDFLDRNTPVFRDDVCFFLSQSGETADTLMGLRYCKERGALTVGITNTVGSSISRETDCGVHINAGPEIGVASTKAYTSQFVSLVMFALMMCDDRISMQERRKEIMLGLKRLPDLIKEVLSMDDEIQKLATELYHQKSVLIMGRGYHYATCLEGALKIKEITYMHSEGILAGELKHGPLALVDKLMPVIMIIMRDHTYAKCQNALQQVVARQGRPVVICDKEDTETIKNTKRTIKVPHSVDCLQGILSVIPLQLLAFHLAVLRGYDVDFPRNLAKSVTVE
UniProt P48506: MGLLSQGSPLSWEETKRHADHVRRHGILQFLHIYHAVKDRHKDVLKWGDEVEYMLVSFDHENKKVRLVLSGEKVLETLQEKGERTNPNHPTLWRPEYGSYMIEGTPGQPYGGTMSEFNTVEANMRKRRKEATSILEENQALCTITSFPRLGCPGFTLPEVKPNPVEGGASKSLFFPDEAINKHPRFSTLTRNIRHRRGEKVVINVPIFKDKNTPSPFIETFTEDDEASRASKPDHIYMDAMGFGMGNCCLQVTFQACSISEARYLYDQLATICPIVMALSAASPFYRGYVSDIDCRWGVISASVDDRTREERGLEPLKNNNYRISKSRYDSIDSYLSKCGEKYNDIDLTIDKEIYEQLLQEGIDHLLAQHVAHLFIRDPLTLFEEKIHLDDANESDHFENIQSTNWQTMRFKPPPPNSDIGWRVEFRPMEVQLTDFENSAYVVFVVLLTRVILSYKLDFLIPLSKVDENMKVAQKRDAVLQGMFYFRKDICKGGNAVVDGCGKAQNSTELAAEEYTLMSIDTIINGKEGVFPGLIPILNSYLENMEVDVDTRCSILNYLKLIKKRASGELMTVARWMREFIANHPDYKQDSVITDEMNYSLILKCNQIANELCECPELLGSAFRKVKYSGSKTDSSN
UniProt Q96AE4: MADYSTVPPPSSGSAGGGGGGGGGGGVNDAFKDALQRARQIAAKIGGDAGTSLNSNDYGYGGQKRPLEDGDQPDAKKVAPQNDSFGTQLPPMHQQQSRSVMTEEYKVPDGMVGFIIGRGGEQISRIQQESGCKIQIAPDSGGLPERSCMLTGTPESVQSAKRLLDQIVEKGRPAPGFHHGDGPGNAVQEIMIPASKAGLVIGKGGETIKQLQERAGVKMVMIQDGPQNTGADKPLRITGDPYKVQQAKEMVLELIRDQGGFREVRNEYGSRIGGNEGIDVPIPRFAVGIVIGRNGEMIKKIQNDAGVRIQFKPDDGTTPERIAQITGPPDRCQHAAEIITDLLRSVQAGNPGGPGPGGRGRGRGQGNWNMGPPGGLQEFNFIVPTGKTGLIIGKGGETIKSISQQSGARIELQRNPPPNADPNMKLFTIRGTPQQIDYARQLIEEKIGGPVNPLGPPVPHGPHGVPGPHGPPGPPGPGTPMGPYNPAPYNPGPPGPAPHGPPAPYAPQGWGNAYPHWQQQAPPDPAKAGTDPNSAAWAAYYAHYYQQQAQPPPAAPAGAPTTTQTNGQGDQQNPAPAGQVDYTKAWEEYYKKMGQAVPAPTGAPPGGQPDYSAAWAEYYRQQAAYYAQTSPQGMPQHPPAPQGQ
UniProt P30047: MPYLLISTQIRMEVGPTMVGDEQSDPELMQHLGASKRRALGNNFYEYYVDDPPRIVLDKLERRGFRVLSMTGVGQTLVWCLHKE
UniProt Q14697: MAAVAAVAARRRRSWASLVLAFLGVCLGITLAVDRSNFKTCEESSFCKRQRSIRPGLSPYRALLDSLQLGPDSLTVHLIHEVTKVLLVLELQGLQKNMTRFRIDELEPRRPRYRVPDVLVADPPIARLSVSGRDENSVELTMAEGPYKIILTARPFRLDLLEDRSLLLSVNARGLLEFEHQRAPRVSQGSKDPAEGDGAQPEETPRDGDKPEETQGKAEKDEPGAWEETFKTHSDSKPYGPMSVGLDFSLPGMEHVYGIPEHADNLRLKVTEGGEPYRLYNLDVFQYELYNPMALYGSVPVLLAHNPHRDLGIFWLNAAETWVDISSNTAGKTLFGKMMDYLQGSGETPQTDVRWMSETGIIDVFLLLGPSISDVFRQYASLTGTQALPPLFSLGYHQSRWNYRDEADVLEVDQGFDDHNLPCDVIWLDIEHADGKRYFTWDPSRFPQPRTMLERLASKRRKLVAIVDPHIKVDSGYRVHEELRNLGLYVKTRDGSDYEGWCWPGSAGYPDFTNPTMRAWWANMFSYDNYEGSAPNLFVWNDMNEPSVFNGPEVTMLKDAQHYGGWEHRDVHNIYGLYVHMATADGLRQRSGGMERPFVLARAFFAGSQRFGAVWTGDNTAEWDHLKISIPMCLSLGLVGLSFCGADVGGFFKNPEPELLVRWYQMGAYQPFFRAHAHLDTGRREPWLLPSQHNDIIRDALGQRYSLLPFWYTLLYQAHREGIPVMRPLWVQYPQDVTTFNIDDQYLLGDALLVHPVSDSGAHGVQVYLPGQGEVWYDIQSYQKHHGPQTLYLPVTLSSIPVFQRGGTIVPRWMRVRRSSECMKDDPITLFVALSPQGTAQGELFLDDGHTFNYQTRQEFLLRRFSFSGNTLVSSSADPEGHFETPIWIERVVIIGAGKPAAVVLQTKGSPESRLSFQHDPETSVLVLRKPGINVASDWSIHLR
UniProt P51116, whole entry, looked up: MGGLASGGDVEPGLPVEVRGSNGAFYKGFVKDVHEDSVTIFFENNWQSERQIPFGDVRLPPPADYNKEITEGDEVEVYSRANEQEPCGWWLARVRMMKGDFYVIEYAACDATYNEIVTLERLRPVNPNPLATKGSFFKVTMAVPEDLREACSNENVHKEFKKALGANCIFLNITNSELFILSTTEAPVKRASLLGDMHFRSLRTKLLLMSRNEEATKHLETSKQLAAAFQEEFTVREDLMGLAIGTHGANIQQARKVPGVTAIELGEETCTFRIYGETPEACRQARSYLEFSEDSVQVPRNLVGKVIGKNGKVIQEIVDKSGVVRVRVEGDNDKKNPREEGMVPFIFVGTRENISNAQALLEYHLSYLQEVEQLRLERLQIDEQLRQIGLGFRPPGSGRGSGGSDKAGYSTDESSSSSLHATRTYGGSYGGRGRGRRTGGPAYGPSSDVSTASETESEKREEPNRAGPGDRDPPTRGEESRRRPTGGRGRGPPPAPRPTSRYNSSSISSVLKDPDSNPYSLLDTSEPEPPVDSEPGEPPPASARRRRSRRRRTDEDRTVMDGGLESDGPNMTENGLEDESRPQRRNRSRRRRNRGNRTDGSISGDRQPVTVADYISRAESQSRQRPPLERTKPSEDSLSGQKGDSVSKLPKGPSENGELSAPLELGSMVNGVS

log2 fold change, inactive:
GGNBP2 (UniProt Q9H3C7) -0.08
GAB1 isoform 2 (UniProt Q13480) -0.075
FPGT (UniProt O14772) -0.024
GALK2 (UniProt Q01415) 0.022
G3BP2 (UniProt Q9UN86) 0.106
GEMIN4 (UniProt P57678) 0.011
FUNDC2 (UniProt Q9BWH2) 0.012
FXN (UniProt Q16595) -0.03
FRRS1 (UniProt Q6ZNA5) -0.068
GGPS1 (UniProt O95749) 0.041
GGH (UniProt Q92820) 0.034
GFPT1 (UniProt Q06210) -0.022
GAPDH (UniProt P04406) -0.017
GCLC (UniProt P48506) 0.035
FUBP1 (UniProt Q96AE4) 0.004
GCHFR (UniProt P30047) 0.135
GART (UniProt C9JZG2) 0.032
GALNT6 (UniProt Q8NCL4) -0.062
FTSJ1 (UniProt Q9UET6) 0.055
G3BP1 (UniProt Q13283) 0.089
GANAB isoform 2 (UniProt Q14697) -0.012
FSCN1 (UniProt Q16658) -0.037
FXR2 (UniProt P51116) -0.067
FUT11 (UniProt Q495W5) -0.132

Not a retest: entries from further up.
log2 fold change, inactive:
FRRS1 (UniProt Q6ZNA5) -0.068
GGPS1 (UniProt O95749) 0.041
